Results from US10287301B2 (Achillion Pharmaceuticals, Inc., priority 2015, dated 2019).
Structures were worked out from names or drawings and are uncertain.

Chains of the proteins cited; added tags and fusions are not shown. Residues count along the entry.
UniProt P00746, 26-253 limits assumed: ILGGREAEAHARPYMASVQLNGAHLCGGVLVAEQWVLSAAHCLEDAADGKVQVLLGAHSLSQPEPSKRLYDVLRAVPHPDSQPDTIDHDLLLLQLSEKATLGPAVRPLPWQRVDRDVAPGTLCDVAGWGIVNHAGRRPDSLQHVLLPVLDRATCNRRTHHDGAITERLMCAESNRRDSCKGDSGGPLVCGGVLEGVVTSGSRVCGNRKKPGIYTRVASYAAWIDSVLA

Target: Human Factor D (Homo sapiens (Human), UniProt P00746)
Experiment: Human Factor D Assay
Type: biochemical
Conditions: read-out: IC50 (Stars)

CC(=O)c1nn(CC(=O)[C@@H]2C[C@H]3C[C@H]3N2C(=O)Nc2cccc(Br)n2)c2ccc(-c3cnc(C)nc3)cc12
IC50: > 10 µM
